Patent US9453053B2, “Short peptides for enhancing muscle function” (UNIVERSITAT HEIDELBERG, priority 2010, dated 2016)
Not every detail of the peptide structures is certain; ends, links or a residue may be inferred. Ends that are not written are not given here.

Amino acid sequences for entries named in this document (tags omitted).
UniProt B0LPN4, whole entry: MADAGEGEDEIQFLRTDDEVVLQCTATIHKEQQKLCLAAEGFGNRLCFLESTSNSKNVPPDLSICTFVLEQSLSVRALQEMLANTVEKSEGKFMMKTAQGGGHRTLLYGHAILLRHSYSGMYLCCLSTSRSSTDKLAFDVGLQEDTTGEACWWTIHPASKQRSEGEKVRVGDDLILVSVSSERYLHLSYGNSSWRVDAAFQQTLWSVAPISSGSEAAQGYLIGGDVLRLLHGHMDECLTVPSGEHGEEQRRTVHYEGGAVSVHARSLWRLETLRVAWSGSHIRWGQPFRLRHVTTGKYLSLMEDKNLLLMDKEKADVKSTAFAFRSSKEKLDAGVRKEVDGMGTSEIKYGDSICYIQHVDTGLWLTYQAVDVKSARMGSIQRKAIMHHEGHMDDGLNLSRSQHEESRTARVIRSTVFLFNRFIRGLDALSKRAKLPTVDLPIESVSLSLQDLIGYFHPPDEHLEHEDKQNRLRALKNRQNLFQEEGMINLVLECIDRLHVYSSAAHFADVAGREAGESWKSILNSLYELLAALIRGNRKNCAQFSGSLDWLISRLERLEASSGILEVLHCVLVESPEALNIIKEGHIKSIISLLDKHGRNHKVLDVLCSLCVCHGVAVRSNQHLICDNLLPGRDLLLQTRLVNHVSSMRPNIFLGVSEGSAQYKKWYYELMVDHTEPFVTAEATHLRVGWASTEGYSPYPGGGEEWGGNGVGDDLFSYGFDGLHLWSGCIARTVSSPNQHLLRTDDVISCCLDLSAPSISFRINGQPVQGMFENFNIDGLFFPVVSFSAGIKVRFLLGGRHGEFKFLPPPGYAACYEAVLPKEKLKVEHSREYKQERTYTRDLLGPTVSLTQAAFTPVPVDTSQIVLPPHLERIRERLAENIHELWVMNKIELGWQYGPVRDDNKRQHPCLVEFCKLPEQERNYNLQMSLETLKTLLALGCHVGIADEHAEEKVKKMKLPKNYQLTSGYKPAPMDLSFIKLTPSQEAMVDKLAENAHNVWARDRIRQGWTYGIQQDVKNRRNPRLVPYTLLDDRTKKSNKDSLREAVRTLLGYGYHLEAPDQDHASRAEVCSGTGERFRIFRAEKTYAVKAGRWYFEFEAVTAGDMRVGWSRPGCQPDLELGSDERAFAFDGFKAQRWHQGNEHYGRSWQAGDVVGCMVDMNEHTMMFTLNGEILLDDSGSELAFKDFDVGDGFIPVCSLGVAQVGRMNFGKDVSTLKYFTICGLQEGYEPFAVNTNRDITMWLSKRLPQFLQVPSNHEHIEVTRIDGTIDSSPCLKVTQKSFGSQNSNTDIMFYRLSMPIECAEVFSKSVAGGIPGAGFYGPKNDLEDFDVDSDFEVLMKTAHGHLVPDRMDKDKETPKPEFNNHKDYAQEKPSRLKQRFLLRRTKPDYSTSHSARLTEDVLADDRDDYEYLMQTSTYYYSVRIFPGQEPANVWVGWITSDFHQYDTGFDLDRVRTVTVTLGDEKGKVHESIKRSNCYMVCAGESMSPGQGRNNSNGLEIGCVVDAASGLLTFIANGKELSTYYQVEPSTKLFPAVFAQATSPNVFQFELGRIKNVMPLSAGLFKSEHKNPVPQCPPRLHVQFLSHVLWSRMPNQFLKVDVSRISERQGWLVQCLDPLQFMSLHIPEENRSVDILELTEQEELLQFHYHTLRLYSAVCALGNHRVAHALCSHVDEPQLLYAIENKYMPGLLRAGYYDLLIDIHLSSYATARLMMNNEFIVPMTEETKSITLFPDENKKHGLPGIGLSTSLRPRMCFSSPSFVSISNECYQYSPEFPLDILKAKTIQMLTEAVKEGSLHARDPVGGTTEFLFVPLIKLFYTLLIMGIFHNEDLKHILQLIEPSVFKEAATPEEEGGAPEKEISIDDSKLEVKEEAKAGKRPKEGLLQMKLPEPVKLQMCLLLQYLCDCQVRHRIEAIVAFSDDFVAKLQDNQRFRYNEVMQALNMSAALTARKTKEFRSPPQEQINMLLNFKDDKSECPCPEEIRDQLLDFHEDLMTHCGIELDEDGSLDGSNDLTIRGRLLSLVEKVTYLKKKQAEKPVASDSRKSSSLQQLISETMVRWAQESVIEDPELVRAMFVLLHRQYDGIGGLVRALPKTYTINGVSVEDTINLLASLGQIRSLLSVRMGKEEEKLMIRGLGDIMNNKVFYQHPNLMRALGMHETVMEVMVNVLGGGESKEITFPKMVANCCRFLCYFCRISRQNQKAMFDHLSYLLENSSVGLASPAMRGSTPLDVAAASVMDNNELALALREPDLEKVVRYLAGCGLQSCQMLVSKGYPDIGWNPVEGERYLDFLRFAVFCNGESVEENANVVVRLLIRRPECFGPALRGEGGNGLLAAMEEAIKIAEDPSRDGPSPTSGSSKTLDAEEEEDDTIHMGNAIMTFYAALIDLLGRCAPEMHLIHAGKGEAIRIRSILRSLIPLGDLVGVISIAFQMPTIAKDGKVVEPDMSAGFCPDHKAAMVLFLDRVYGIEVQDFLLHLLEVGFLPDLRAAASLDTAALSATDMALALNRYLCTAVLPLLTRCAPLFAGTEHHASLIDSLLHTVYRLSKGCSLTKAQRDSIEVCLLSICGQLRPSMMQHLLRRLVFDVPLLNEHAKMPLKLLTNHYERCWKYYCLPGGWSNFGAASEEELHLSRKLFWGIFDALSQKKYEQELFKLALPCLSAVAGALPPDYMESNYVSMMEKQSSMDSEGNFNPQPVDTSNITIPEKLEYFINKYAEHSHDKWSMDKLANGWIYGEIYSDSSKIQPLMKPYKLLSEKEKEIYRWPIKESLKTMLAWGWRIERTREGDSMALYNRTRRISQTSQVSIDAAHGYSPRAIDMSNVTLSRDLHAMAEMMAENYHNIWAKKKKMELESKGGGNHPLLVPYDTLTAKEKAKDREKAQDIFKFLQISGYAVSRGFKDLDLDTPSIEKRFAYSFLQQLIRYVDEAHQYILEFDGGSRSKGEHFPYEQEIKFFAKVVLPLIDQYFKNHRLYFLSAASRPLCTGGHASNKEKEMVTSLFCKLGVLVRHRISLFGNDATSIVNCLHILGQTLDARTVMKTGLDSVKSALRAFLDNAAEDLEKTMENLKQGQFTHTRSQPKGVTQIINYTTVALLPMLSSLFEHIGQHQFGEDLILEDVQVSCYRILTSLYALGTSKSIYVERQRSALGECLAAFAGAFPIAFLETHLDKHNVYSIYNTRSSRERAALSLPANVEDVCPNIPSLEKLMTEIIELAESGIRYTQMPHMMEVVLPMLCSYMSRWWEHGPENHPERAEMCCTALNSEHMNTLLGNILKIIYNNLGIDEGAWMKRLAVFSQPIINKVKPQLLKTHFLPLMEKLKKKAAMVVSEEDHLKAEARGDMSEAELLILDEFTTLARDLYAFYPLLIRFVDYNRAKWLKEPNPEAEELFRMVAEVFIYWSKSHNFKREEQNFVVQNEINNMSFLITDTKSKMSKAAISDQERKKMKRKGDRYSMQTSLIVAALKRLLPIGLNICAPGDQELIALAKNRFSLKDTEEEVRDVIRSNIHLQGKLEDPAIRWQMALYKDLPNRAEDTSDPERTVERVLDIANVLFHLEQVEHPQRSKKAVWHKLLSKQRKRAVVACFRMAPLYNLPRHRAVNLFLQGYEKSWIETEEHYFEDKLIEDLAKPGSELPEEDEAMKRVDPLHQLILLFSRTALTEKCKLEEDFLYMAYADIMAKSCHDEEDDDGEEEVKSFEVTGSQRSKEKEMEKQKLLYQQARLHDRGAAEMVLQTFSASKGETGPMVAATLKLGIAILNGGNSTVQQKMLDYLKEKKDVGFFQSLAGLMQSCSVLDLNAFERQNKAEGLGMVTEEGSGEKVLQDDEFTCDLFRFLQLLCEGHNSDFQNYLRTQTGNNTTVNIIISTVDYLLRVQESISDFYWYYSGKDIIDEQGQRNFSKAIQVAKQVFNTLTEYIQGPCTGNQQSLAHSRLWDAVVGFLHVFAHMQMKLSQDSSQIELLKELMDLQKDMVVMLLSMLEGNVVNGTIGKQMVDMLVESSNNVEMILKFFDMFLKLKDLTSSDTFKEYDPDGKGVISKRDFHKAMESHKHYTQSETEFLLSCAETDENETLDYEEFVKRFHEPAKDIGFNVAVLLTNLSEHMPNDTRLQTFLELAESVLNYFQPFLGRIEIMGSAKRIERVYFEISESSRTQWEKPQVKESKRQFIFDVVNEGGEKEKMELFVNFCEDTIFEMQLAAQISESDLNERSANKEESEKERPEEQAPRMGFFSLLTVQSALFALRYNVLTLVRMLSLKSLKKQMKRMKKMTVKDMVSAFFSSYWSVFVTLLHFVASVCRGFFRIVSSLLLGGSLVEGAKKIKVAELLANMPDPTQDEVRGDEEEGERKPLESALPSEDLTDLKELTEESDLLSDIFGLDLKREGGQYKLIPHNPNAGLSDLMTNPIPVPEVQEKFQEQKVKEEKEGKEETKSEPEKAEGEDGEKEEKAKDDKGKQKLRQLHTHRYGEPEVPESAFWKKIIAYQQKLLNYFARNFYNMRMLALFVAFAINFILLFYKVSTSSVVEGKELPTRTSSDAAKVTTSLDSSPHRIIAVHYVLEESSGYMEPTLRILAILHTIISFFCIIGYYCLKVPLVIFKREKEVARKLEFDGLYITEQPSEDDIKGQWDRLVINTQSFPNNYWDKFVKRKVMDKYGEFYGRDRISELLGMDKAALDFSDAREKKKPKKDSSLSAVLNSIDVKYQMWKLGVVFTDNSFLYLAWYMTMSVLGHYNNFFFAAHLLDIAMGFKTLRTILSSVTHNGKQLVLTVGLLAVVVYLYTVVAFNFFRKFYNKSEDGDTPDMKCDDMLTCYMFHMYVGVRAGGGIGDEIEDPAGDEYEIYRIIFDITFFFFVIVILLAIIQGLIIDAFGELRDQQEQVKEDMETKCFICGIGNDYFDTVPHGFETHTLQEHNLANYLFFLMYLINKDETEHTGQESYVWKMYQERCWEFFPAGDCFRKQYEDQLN

How the values were obtained:
[1] = test system: C57/B6 male/female mice with postischemic contractile dysfunction; experiment: Heart failure mice: βAR triggered lethal ventricular tachyarrhythmias (epinephrin/caffeine, ECG); type: in vivo, mouse; conditions: 225 ng i.p. daily for 2 weeks, then i.p. epinephrin/caffeine
diastolic RyR2 function = biological target: T1, diastolic RyR2 function (Rattus norvegicus, UniProt B0LPN4); experiment: Calcium sparks in Fluo-3 AM loaded quiescent intact ventricular cardiomyocytes; type: cell-based
T1 construct: Fluo-3 AM loaded control and S100A1ct6/11 treated quiescent ventricular rat cardiomyocytes; endogenous in cells; host or cells: intact quiescent rat ventricular cardiomyocytes

[2] = test system: post-myocardial infarction heart failure mice; experiment: Skeletal muscle function in post-myocardial infarction heart failure mice after systemic treatment; type: in vivo, mouse; conditions: 2-week i.p., 225 ng, daily injections
[3] = test system: C57/B6 male/female mice with postischemic contractile dysfunction; experiment: Experimental mouse heart failure model: echocardiography and survival; type: in vivo; conditions: 225 ng i.p. daily for 2 weeks

Sequence: DKDDPPYVVLVAALTVA [S100A1ct6/11, D-K-D-D-P-P-Y-V-V-L-V-A-A-L-T-V-A (SEQ ID NO: 42)]
- occurrence of lethal ventricular fibrillation [1]: 2 out of 10
- calcium spark frequency (diastolic RyR2 function; 100 nM, basal conditions): decreases
- calcium spark frequency (diastolic RyR2 function; 1000 nM): enhances
- skeletal muscle function [2]: improved skeletal muscle function
- survival [3]: significantly improved survival
